# Legend:
# [1] = Fluorescence deactivation by 561 nm excitation beam and reactivation by 775 nm STED beam (Example 11); format: physicochemical
# [2] = Fluorescence retention in STED microscopy (Example 12); format: physicochemical
compound,measurement,setting,value
"Cc1cc(C)c(-c2c3cccc4c5ccc6ccc7c(-c8c(C)cc(C)cc8C)c8cccc9c%10ccc%11ccc2c2c%11c%10c%10c(c89)c7c6c5c%10c2c34)c(C)c1 [DBOV-Mes, 6,14-dimesityldibenzo[hi,st]ovalene]",reduction in fluorescence,"[1]; 7 cycles, in the absence of reactivation (comparison)",30%
same,slope of lnln-ln plot of fluorescence ratio vs power density of excitation laser light,"[1]; 561 nm excitation only, region of few images (Figure 7)",2
same,fluorescence recovered by reactivation beam,"[1]; 775 nm (600 mW) doughnut-shape STED beam, 5 frames, total reactivation time 5.614 s",all fluorescence was recovered
same,slope of lnln-ln plot of fluorescence reactivation rate vs intensity of recovery light,[1]; 775 nm STED laser beam (Figure 8),about 1
same,reduction in fluorescence,[1]; after 7 cycles of repeated short-term deactivation and reactivation,no significant reduction in fluorescence
same,fluorescence intensity quenched,"[1]; after 100 consecutive frames of confocal imaging, 561 nm (0.22 mW) excitation beam",~50%
same,maximum fluorescence retention,"[2]; 150 consecutive images, 561 nm excitation beam with donut-shaped 775 nm STED beam as recovery light",62%
same,fluorescence retention,[2]; Gaussian-shaped rather than donut-shaped recovery beam coinciding with excitation beam (experiment not shown),full fluorescence retention

# Reference: patent EP4621028A1, “FLUORESCENCE RECOVERY IN NANOGRAPHENE” (Max-Planck-Gesellschaft zur Förderung der Wissenschaften …, priority 2024, dated 2025)
